# Data reported in PubChem BioAssay AID504467 (National Center for Advancing Translational Sciences (NCATS), 2011).
# Hit rate of the full screen: of about 330,000 compounds, about 7,700 (2.3%) were called active. Inconclusive means that the source gave no clear call. Such entries were picked first, then a sample of the others. The call rests on the fitted dose curve; in most records, active means well fitted inhibition curve with a large enough effect; inconclusive means small, poorly fitted or top-dose-only effect, or effect the other way; inactive means flat fitted curve, though single readings scatter. Potencies beside an inconclusive call are fits to weak or partial responses and may not hold up.
# Experiment: qHTS screen for small molecules that inhibit ELG1-dependent DNA repair in human embryonic kidney (HEK293T) cells expressing luciferase-tagged ELG1; further: nearly all actives have a fitted effect of over 55% in size
# Conditions: HEK293T ELG1-luciferase reporter, luminescence, 16 h, DNA damage induced by 5-fluorouridine; series mostly up to 46.1 µM
# Summary of the method: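 DMSO vehicle served as the neutral condition. Each well held 2,000 cells given 5-fluorouridine plus compound; after 16 hr at 37 °C/5% CO2, ONE-Glo was added and luciferase measured 30 min later.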
# Potency means the concentration at half of the fitted maximal effect.
row,Structure (SMILES),Potency
1,Fc1ccc(-c2nnc(CSc3nnc4ccccn34)o2)cc1,"inconclusive: 18.4 µM [activator, partial curve]"
2,O=C(C1CCC1)N1CCc2cc(S(=O)(=O)NCCN3CCN(c4ccccc4F)CC3)ccc21,"inconclusive: 29.1 µM [inhibitor, single point]"
3,CN1c2ccccc2C(O)=C(C(=S)Nc2ccc(F)c(Cl)c2)S1(=O)=O,inactive
4,COCCNC(=O)c1ccc(C)c(NC(=O)C2=C(C)OCCS2)c1,inactive
5,CCN(CC)S(=O)(=O)c1ccc(NC(=S)NC(=O)C2CCC2)cc1,"inconclusive: 25.9 µM [inhibitor, partial curve, poor fit]"
6,COc1ccc(S(=O)(=O)N(C)CC(=O)N2CCN(c3ccccc3)CC2)cc1,"inconclusive: 6.51 µM [inhibitor, single point]"
7,C=CCNC(=S)NNc1nc(Nc2ccccc2)nc(N2CCCCC2)n1,inactive
8,CCOc1ccc2c(c1)ncn2Cc1ccccc1,"inconclusive: 23.1 µM [activator, partial curve]"
9,Cc1cc(C(=O)Nc2cccc3ccccc23)c(C)o1,"inconclusive: 25.9 µM [activator, single point]"
10,Cc1[nH]n(-c2ccccc2)c(=O)c1/C=C1\C=NN=C1c1ccccc1,"inconclusive: 29.1 µM [activator, single point]"
11,Cc1cccc(C(=O)OC(C)C(=O)NCC2CCCCC2)c1O (centres undefined),inactive
12,CCCCOc1ccc(CN2CCSCC2)cc1,inactive
13,CC(C)(C)C(=O)OCc1nc(-c2ccc3c(c2)OCCO3)cs1,"inconclusive: 25.9 µM [activator, partial curve]"
14,CC1=C(c2ccc(F)cc2)[N+](=O)C(C)(C)N1[O-],inactive
15,OCC1(Cc2ccc(Cl)cc2)CCN(Cc2ccc(Oc3ncccn3)cc2)CC1,inactive
16,C=CCNC(=O)c1ccc(-c2cccc([N+](=O)[O-])c2)o1,"inconclusive: 23.1 µM [activator, single point]"
17,Cc1ccc(S(=O)(=O)N2CCOCC2)cc1NC(=O)COC(=O)Cn1c(C)csc1=O,"inconclusive: 0.259 µM [activator, partial curve]"
18,COc1cc(Br)c(CNc2cc(C)ccc2C)cc1OC,inactive
19,CCN(CC)C(=S)Nc1ccc(OC)cc1,inactive
20,COC(=O)c1ccccc1Sc1ncnc2onc(C)c12,inactive
21,C[C@H](CO)N1C[C@H](C)[C@@H](CN(C)C(=O)Nc2ccc3c(c2)OCO3)Oc2ccc(NS(=O)(=O)c3cn(C)cn3)cc2C1=O,"inconclusive: 23.1 µM [activator, partial curve, poor fit]"
22,CCOC(=O)C(CC)Sc1nnc(COc2ccc(C)cc2)n1-c1ccccc1 (centres undefined),"inconclusive: 29.1 µM [inhibitor, single point]"
23,CCOc1ccc2oc(-c3ccccc3)c(C(=O)N3CCN(CCO)CC3)c2c1,"inconclusive: 14.1 µM [inhibitor, single point]"
24,Cc1ccc(C(=O)Nc2cccc(C(F)(F)F)c2)cc1Nc1ccccn1,inactive
25,CCOC(=O)Cc1csc(N/N=C/c2ccc(Cl)cc2)n1,"inconclusive: 2.59 µM [activator, full curve]"

row,Structure (SMILES),Potency
1,C=CCOc1nc2c(c(=O)n(C)c(=O)n2C)n1Cc1c(Cl)cccc1Cl,"inconclusive: 29.1 µM [inhibitor, single point]"
2,N#C/C(=C\c1ccc(O)cc1)C(=O)N1CCCC1,"inconclusive: 10.3 µM [activator, partial curve]"
3,COc1cc(/C=N/NC(=O)c2ccc(N3CCCC3=O)cc2)ccc1O,"inconclusive: 14.6 µM [activator, partial curve]"
4,COc1ccc(C(C(=O)NC2CCCCC2)N(C(=O)Cc2c[nH]c3ccccc23)c2ccccc2C)cc1OC (centres undefined),inactive
5,O=C(NC(=S)Nc1ccc(Cl)cc1)c1ccccc1,"inconclusive: 20.6 µM [activator, partial curve]"
6,COc1ccc(C(=O)NC=C2C(=O)OC(C)(C)OC2=O)cc1,inactive
7,CC(C)c1ccc(N(CC(=O)NC2CCCCC2)C(=O)CNC(=O)c2ccco2)cc1,inactive
8,Cc1noc(C)c1CSc1nnc(-c2ccccc2F)n1CCc1ccccc1,"inconclusive: 16.4 µM [inhibitor, partial curve, poor fit]"
9,COc1ccc(C(C)NC(=S)NCc2ccc(F)cc2)cc1 (centres undefined),inactive
10,Cc1ccccc1NC(=S)N1CCN(Cc2ccc3c(c2)OCO3)CC1,inactive
11,CN(C)S(=O)(=O)c1ccc(-c2csc(N/N=C/c3ccc(O)cc3)n2)cc1,"inconclusive: 5.8 µM [inhibitor, partial curve, poor fit]"
12,CCN1CCN(c2cc(C)c3cc(NC(=O)c4cc(OC)cc(OC)c4)ccc3n2)CC1,"inconclusive: 7.3 µM [activator, partial curve]"
13,COc1ccc(-c2noc(-c3ccccc3C(=O)NCc3ccco3)n2)cc1OC,active: 8.2 µM
14,CCOc1cccc(C(=O)NC(=S)Nc2cccc(NC(=O)c3ccccc3Cl)c2)c1,active: 8.2 µM
15,CN(C)c1ccc(-c2nnn(CC(=O)N3c4ccccc4CCc4ccccc43)n2)cc1,inactive
16,c1ccc(Cn2nnnc2C(c2cccs2)N2CCc3ccccc3C2)cc1 (centres undefined),inactive
17,Cc1ccc(S(=O)(=O)NCc2csc(-c3cccs3)n2)cc1,inactive
18,COc1ccc(CCNC(=O)CCCOc2ccc(C)cc2)cc1OC,inactive
19,N#CCSc1ccccc1NC(=O)COc1ccc(-c2nnco2)cc1,"inconclusive: 5.8 µM [inhibitor, partial curve]"
20,O=c1c(Cc2ccc(F)cc2)c(O)ccn1Cc1cccc(Cl)c1,"inconclusive: 1.16 µM [activator, single point]"
21,COc1cc(C(=O)OC(C)C(=O)NCC2CCCCC2)cc(NC(=O)c2ccco2)c1OC (centres undefined),active: 11.6 µM
22,O=S(Cc1cc(Sc2ccccc2)nc(-c2ccccc2)n1)c1ccccc1 (centres undefined),"inconclusive: 25.9 µM [inhibitor, single point]"
23,CC1=C(C(=O)OC(C)C)C(/C=C/c2ccccc2)NC(=O)N1 (centres undefined),"inconclusive: 18.4 µM [activator, single point]"
24,CCOC(=O)N1CCC(n2c(SCC(=O)Nc3nccs3)nc3ccsc3c2=O)CC1,"inconclusive: 16.4 µM [inhibitor, single point]"
25,O=C(C1=COCCO1)N(Cc1nnc(-c2ccccc2Cl)o1)C1CC1,"inconclusive: 29.1 µM [activator, single point]"

# Taken from the listing (4 entries):
row,Structure (SMILES),Potency
3,COc1cc(/C=N/NC(=O)c2ccc(N3CCCC3=O)cc2)ccc1O,"inconclusive: 14.6 µM [activator, partial curve]"
4,COc1ccc(C(C(=O)NC2CCCCC2)N(C(=O)Cc2c[nH]c3ccccc23)c2ccccc2C)cc1OC (centres undefined),inactive
5,O=C(NC(=S)Nc1ccc(Cl)cc1)c1ccccc1,"inconclusive: 20.6 µM [activator, partial curve]"
6,COc1ccc(C(=O)NC=C2C(=O)OC(C)(C)OC2=O)cc1,inactive

# (next part)

row,Structure (SMILES),Potency
1,COc1ccc2cc(/C=N/NC(=O)c3ccc(CN(c4ccc(C)c(C)c4)S(C)(=O)=O)cc3)c(Cl)nc2c1,"inconclusive: 2.59 µM [inhibitor, full curve, poor fit]"
2,CCc1ccc(N=c2c([N+](=O)[O-])nn(-c3ccccc3)n2O)cc1,inactive
3,COc1ccc(CN2CCN(C(=O)c3ccc(S(=O)(=O)N4CCCCCC4)cc3)CC2)cc1F,active: 6.51 µM
4,N#C/C(=C\c1ccc(O)c(O)c1)S(=O)(=O)c1ccccc1,inactive
5,CCOC(=O)C1CCCCN1Cc1cccc(C(F)(F)F)c1 (centres undefined),inactive
6,Cc1ccc(O)c(-c2cc(C(=O)Nc3ccc(S(=O)(=O)N4CC(C)OC(C)C4)cc3)[nH]n2)c1 (centres undefined),active: 8.2 µM
7,COCCCNC(=S)Nc1cc2oc3ccccc3c2cc1OC,inactive
8,CSc1ccc(/C=C/C(=O)OCC(=O)N2CCN(S(=O)(=O)c3ccc(C)cc3C)CC2)cc1,"inconclusive: 15.8 µM [inhibitor, single point]"
9,COc1cccc(C(c2c(N)[nH]c(=S)[nH]c2=O)c2c(N)[nH]c(=S)[nH]c2=O)c1,inactive
10,Cc1cccc(N2CCN(S(=O)(=O)c3c(C)nc4scc(C)n4c3=O)CC2C)c1 (centres undefined),"inconclusive: 20.6 µM [inhibitor, partial curve]"
11,COc1cccc(-c2cc(C(=O)Nc3cccnc3Cl)no2)c1,"inconclusive: 18.3 µM [activator, single point]"
12,CNS(=O)(=O)c1cccc(C(=O)OCC(=O)c2ccc3c(c2)OCCO3)c1,inactive
13,COc1ccccc1NS(=O)(=O)c1ccc(N2CCOCC2)c(N)c1,inactive
14,CN1CCN(CCc2nc3cc(NC(=O)COc4ccc(Cl)cc4)ccc3n2C)CC1,inactive
15,COC(c1ccccc1)c1nnc(CCC(=O)N2CCN(C3CCCC3)CC2)o1 (centres undefined),"inconclusive: 20.6 µM [activator, single point]"
16,COC(=O)c1ccc(C(=O)OC)c(NC(=O)CN2CCN(c3ccccc3)CC2)c1,"inconclusive: 4.11 µM [inhibitor, single point]"
17,O=C(COC(=O)c1ccccc1F)NCc1ccc2c(c1)OCO2,inactive
18,Cc1ccc(C)c(N2CCN(C(=O)Cn3c(=O)oc4cc(S(=O)(=O)N5CCCC5)ccc43)CC2)c1,"inconclusive: 29.1 µM [inhibitor, single point]"
19,Cc1cc(NC(=S)NC(=O)CC(C)C)ccc1Br,"inconclusive: 18.4 µM [activator, partial curve]"
20,CC(=O)Oc1c(C)c(OC(C)=O)c2c(c1C(C)=O)OC1CC(=O)C(C(C)=O)=C(O)C21C (centres undefined),inactive
21,Cc1cc(C)nc(NNS(=O)(=O)c2ccc(F)c(Cl)c2)n1,"inconclusive: 23.1 µM [activator, single point]"
22,CC(/C=N/NC(=O)c1nnn(-c2nonc2N)c1C(C)C)=C\c1ccccc1,"inconclusive: 25.9 µM [inhibitor, single point]"
23,COc1ccccc1NC(=S)N1CCCc2ccccc21,"inconclusive: 20.6 µM [activator, partial curve, poor fit]"
24,COc1ccccc1C(=O)N1N=C(c2ccc(NS(C)(=O)=O)cc2)CC1c1cccs1 (centres undefined),inactive

# Ordered by heavy-atom count (high to low): part of the list above
row,Structure (SMILES),Potency
16,COC(=O)c1ccc(C(=O)OC)c(NC(=O)CN2CCN(c3ccccc3)CC2)c1,"inconclusive: 4.11 µM [inhibitor, single point]"
12,CNS(=O)(=O)c1cccc(C(=O)OCC(=O)c2ccc3c(c2)OCCO3)c1,inactive
7,COCCCNC(=S)Nc1cc2oc3ccccc3c2cc1OC,inactive
